Reference: patent US20080113101A1, “ORGANIC-ELECTROLUMINESCENCE-MATERIAL-CONTAINING SOLUTION, METHOD FOR FORMING THIN FILM OF ORGANIC ELECTROLUMINESCENCE MATERIAL, THIN FILM OF ORGANIC ELECTROLUMINESCENCE MATERIAL AND ORGANIC ELECTROLUMINESCENCE DEVICE” (Idemitsu Kosan Co., Ltd., priority 2006, published 2008)

Assay: Organic EL device with luminescent layer spin-coated from the ink
Conditions: device of Example 47; H10: ink of Example 28 with Compound H10 instead of H4

Structure (SMILES): c1ccc(-c2ccccc2-c2ccc3c(-c4ccccc4)c4ccccc4c(-c4ccccc4)c3c2)cc1 [Compound H10]
- luminescence efficiency: 4.1 cd/A
